According to publication PMC7819943, “Rice protein-binding microarrays: a tool to detect cis-acting elements near promoter regions in rice”:
Some of the results follow.

Sequences of proteins named here, by UniProt entry; tags and fusion partners are left off.
UniProt Q0JBA9, entry or part of it: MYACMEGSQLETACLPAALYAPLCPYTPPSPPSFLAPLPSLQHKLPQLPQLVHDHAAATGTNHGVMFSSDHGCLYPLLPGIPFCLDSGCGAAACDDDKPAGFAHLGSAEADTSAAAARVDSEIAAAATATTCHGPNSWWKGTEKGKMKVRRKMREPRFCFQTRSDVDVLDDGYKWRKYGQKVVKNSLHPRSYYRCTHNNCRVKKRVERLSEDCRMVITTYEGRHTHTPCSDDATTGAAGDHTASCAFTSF

molecular target: OsWRKY34 (Oryza sativa, UniProt Q0JBA9 1-250); test: protein-binding microarray (RPBM); PBS, 2% BSA, 51.3 ng/ul salmon testes DNA, 50 uM zinc acetate, 200 nM TF, 25 C, 1 h; high values mean tight binding; settings: protein: recombinant; tags: N-terminal polyhistidine and DsRed monomer fusion (pET32a); label: CyDye5-dUTP incorporated in the synthesized complementary strand; 3' TTTTT single-stranded linker to array surface; dsDNA, one strand shown
Method in brief: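 Binding signal here means per-feature fluorescence intensity in arbitrary units. The values were read on an Axon 4000B scanner after a custom Agilent array, double-stranded by primer extension with Cy5-dUTP, was incubated with 200 nM protein at 25 °C for 1 h in PBS with 2% BSA, salmon testes DNA and 50 µM zinc acetate, then washed. The proteins were transcription factors with an N-terminal polyhistidine tag and DsRed, expressed in E. coli BL21-CodonPlus and purified on Ni–NTA.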

Sequence	binding signal
GGCCAACCAAAACCCTCCTCCTCTCATCATCGCCCAAAACCGGAGTCACCTAGTGCAG	9060 fluorescence intensity (a.u.)
TTAGATTTTTCTTACAACCATTTGCATTGATTTTTTTTTTCGGAGTCACCTAGTGCAG	8960 fluorescence intensity (a.u.)
TCTCTCGGCATCTTCATCTCTATCCCCTTTCCTCTATCTCCGGAGTCACCTAGTGCAG	10600 fluorescence intensity (a.u.)
TAGCTCCAATTCATCTATAGTCAATCTAATAGCCATTTAACGGAGTCACCTAGTGCAG	8780 fluorescence intensity (a.u.)
CGCTTGCCGCCCGCTCCGCGCTATTCACCCCGGCCGGCAGCGGAGTCACCTAGTGCAG	8320 fluorescence intensity (a.u.)
AAGAGAGTAGTACATAGCTATTCCCTCTGGTTTTAAATATCGGAGTCACCTAGTGCAG	8120 fluorescence intensity (a.u.)
TATCTTTTAAATCATTTTATGTATCTATTTGGTATATTTCCGGAGTCACCTAGTGCAG	9430 fluorescence intensity (a.u.)
GATTCGGACAATGCAAGCATCCTCTTCCTATAAAAGTCTTCGGAGTCACCTAGTGCAG	8040 fluorescence intensity (a.u.)
GGTGTGTACAGTTTGTCCAAATCACCAACCAACCATACATCGGAGTCACCTAGTGCAG	9200 fluorescence intensity (a.u.)
TTCTTTCTTTTTTATTTATTTATTTATTTATTTATTTATTCGGAGTCACCTAGTGCAG	9060 fluorescence intensity (a.u.)
CGGCCGGCCGGTGACCACCAACCACTCTACCACAACCATTCGGAGTCACCTAGTGCAG	8610 fluorescence intensity (a.u.)
AATACTTAGCTCGAGCCGCTCTCGTCTTCCCCAATCTCGCCGGAGTCACCTAGTGCAG	8040 fluorescence intensity (a.u.)
CTCACCACCACCACTCCCACATTTCTTCCATCCCTACTCACGGAGTCACCTAGTGCAG	10900 fluorescence intensity (a.u.)
CCAGAAATCCGCTTCTCCACTTGTCACGCGCCTCCAGCGACGGAGTCACCTAGTGCAG	9890 fluorescence intensity (a.u.)
GCTAATTTATCCTGCTCACACGTCGTATTGCCAACCCGACCGGAGTCACCTAGTGCAG	9390 fluorescence intensity (a.u.)
GTACCTGCATTCCTATCGAAATCCTGTGTTTTCCCTATTTCGGAGTCACCTAGTGCAG	8980 fluorescence intensity (a.u.)
ATTAGAGCGATTTTCTAGCTATTCTATGCCAGTGTGACTCCGGAGTCACCTAGTGCAG	9510 fluorescence intensity (a.u.)
GTCGCTTCTCCTGTCCGCGTCCGGTATCTTGGCGAAAATCCGGAGTCACCTAGTGCAG	8620 fluorescence intensity (a.u.)
TCCTTTTCTTTTATTGGATATATGCCATTACAGCTTTTTTCGGAGTCACCTAGTGCAG	9540 fluorescence intensity (a.u.)
TGCGATTTTACACCTTTTATCCATCTGTAAATTGTAATTTCGGAGTCACCTAGTGCAG	8880 fluorescence intensity (a.u.)
GCTCGTCCACCATCCTTTCGCCGCCGCAGCGCGCCATGGACGGAGTCACCTAGTGCAG	8320 fluorescence intensity (a.u.)

Random excerpt: two records from the list
Sequence	binding signal
AAGAGAGTAGTACATAGCTATTCCCTCTGGTTTTAAATATCGGAGTCACCTAGTGCAG	8120 fluorescence intensity (a.u.)
CCAGAAATCCGCTTCTCCACTTGTCACGCGCCTCCAGCGACGGAGTCACCTAGTGCAG	9890 fluorescence intensity (a.u.)

Following part

Sequence	binding signal
ATCCTCCGCCGCCGCCTCACCTCCTCCGCCACCGCGCTCGCGGAGTCACCTAGTGCAG	8270 fluorescence intensity (a.u.)
TTCCTCTTGCTTTCTCCTCCGGGGCCTTGTCGATCTCGTCCGGAGTCACCTAGTGCAG	8580 fluorescence intensity (a.u.)
CTCGTGGTCGGCGCTCCACACTCTACCCTCGCCGAACCTTCGGAGTCACCTAGTGCAG	14300 fluorescence intensity (a.u.)
TCCATGTCACCCTACTTTATCCCGACCGTTCAATCTCAATCGGAGTCACCTAGTGCAG	8450 fluorescence intensity (a.u.)
CTTCCCATAACTTTGAACCGTTAGATTTGTTTTAAAATTCCGGAGTCACCTAGTGCAG	8770 fluorescence intensity (a.u.)
GGCTGGCTTATGTATATTTCCTAGTTATTGCTGCTCTTAACGGAGTCACCTAGTGCAG	8910 fluorescence intensity (a.u.)
GCTCCATCTCCTCTCGCATAAAATTTTTTACACCAACACACGGAGTCACCTAGTGCAG	8280 fluorescence intensity (a.u.)
ATTGCCACGCCACGCGCGGGTGGACGGGAAGGGAGGGGAGCGGAGTCACCTAGTGCAG	9340 fluorescence intensity (a.u.)
GGAGGAGAGGAGTTAGGGTTAAAGGGGTCTGCATGAATCTCGGAGTCACCTAGTGCAG	11800 fluorescence intensity (a.u.)
GGGTGTGTGTGTTGAGGGTTGGCGTCCGTGTCCAGATCTACGGAGTCACCTAGTGCAG	9520 fluorescence intensity (a.u.)
TTTTGTCATTGTGGGTGGTCAGTTATGCTTGTTGGGATGACGGAGTCACCTAGTGCAG	8830 fluorescence intensity (a.u.)
CATCCTTTCTCATGTGAAACTATTCCTATATTCAAAGATTCGGAGTCACCTAGTGCAG	8240 fluorescence intensity (a.u.)
CAGGACACCGGCCCACGCGTATTCTCCTGGTCCCACACGTCGGAGTCACCTAGTGCAG	11100 fluorescence intensity (a.u.)
TCCTCCTGCGTCTAGTACCCTATCTTCACCTTTCCGGAGACGGAGTCACCTAGTGCAG	10100 fluorescence intensity (a.u.)
ATATAGACCGCATATCCCTTCTCGCTAGCTTGCTTAACCCCGGAGTCACCTAGTGCAG	8400 fluorescence intensity (a.u.)
TCGGTGTACTTTTTCCGCCGGAATTCCCCGGGGTGCCTCACGGAGTCACCTAGTGCAG	8410 fluorescence intensity (a.u.)
TTTTTTGTATGGTACAGGTTTGAGAGGGTGTGGGACCCTACGGAGTCACCTAGTGCAG	9820 fluorescence intensity (a.u.)
TTTTTGTCCATGAACCATATGTTTCTTTTTCTTTTTTGAACGGAGTCACCTAGTGCAG	8930 fluorescence intensity (a.u.)
ACACCATCGTTCAGCTTGTTGTCGTCTCATTGGTCAACACCGGAGTCACCTAGTGCAG	10400 fluorescence intensity (a.u.)
ATCCTGCCATATATTCGGCCAGAATTGTTTTCTTCAATTTCGGAGTCACCTAGTGCAG	9600 fluorescence intensity (a.u.)
GAGTACTACTGCTGCAACTTTAATAACATTCAACAATGTTCGGAGTCACCTAGTGCAG	9540 fluorescence intensity (a.u.)
